Measured values as given in patent US20050142634A1, “Novel modulator of non-genomic activity of nuclear receptors (mnar) and uses thereof” (Wyeth, priority 2001, published 2005).
Results are given in words; binding and its absence hold for the method and conditions named. Binding seen in cells or lysates may run through a third protein. Some results given as binding are weak or reduced against the parent protein; the word gives no strength. One block for each substance: values may come before it.

Columns and labels:
Lck [1] = target: Lck (UniProt P06239); test: in vitro translated ERα and MNAR with purified Lck, anti-Lck pull-down, with or without 1 µM E2
Lck [2] = target: Lck (UniProt P06239); test: pull-down (closing summary of the examples)
Lck [3] = target: Lck (UniProt P06239); test: in vitro translated ER and MNAR with purified kinase, pull-down (summary in the Conclusions)
Lck [4] = target: Lck (UniProt P06239); test: in vitro translated ERβ and MNAR with purified Lck, antibody pull-down, with or without E2
Lck [5] = target: Lck (UniProt P06239); test: in vitro translated ERα with purified Lck, pull-down with anti-Lck antibody and protein A, autoradiography
Lck [6] = target: Lck (UniProt P06239); test: in vitro translated ERβ with purified Lck, antibody pull-down, autoradiography
[7] = target: estrogen receptor beta (ERβ), full-length (UniProt Q92731); test: pull-down (closing summary of the examples)
[8] = target: estrogen receptor alpha (ERα), full-length (UniProt P03372); test: pull-down (closing summary of the examples)
[9] = target: estrogen receptor beta (ERβ), full-length (UniProt Q92731); test: pull-down of in vitro translated [35S]-receptor with flag-MNAR (SF9 extract) on anti-FLAG sepharose, autoradiography
[10] = target: estrogen receptor alpha (ERα), full-length (UniProt P03372); test: as above
[11] = target: estrogen receptor beta (ERβ), full-length (UniProt Q92731); test: pull-down (summary of the result in the Conclusions)
[12] = target: estrogen receptor alpha (ERα), full-length (UniProt P03372); test: as above
[13] = target: glucocorticoid receptor (GR) (UniProt P04150); test: pull-down of in vitro translated [35S]-receptor with flag-MNAR (SF9 extract) on anti-FLAG sepharose, with and without hormone
androgen receptor (AR) = androgen receptor (AR) (UniProt P10275); test: as above
[14] = target: estrogen receptor alpha (ERα), full-length (UniProt P03372); test: co-immunoprecipitation with ERα antiserum from MCF-7 cells, Western blot with anti-MNAR antibody; enhanced by E2
[15] = target: estrogen receptor alpha (ERα), full-length (UniProt P03372); test: co-immunoprecipitation with ERα antiserum from MCF-7 cells, probed with rabbit polyclonal anti-MNAR antibody

binding (Lck [1]): binds
binding (Lck [2]): binds
binding (Lck [3]): binds
Substance: MNAR-ERα complex (from UniProt P03372 1-595)

binding (Lck [2]): binds
binding (Lck [4]): binds
binding (Lck [3]): binds
Substance: MNAR-ERβ complex (from UniProt Q92731 1-530)

binding (Lck [5]): binds
Substance: estrogen receptor alpha (ERα), full-length (from UniProt P03372 1-595)

binding (Lck [6]): binds
Substance: estrogen receptor beta (ERβ), full-length (from UniProt Q92731 1-530)

binding [7]: binds
binding [8]: binds
binding [9]: binds
binding [10]: binds
binding [11]: binds
binding [12]: binds
binding [13]: binds
binding (androgen receptor (AR)): binds
Substance: full-length flag-MNAR (from UniProt Q8IZL8 2-1130)

binding [14]: binds
binding [15]: binds
Substance: modulator of non-genomic activity of nuclear receptors (MNAR) (from UniProt Q8IZL8 2-1130)
